Test results as given in paper PMC7966987, “Insights into the catalytic properties of the mitochondrial rhomboid protease PARL” (The Journal of Biological Chemistry, 2021).

By UniProt entry, the sequences of proteins in these tests, tags left out. Where a name states a change or a piece, a line headed by the entry shows the natural chain unless it says otherwise.
UniProt Q9H300: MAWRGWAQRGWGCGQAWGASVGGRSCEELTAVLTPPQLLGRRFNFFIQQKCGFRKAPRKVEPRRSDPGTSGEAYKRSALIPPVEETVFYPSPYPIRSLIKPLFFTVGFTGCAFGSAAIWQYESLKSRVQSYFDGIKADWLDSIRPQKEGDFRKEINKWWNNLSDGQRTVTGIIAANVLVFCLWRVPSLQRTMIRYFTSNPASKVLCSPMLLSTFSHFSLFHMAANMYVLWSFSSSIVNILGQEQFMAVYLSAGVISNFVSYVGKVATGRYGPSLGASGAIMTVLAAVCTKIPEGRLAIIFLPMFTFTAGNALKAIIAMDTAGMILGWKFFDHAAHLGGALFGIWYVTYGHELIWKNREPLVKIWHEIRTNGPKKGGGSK
UniProt Q96HS1: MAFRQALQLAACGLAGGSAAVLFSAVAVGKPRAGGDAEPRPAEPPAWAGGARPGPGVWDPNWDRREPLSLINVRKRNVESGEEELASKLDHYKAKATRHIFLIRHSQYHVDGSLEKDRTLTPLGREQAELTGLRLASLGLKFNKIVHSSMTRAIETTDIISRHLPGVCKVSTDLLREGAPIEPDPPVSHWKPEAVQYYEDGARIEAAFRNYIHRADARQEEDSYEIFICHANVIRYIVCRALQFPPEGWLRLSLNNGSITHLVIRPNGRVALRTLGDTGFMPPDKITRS
UniProt Q9NR28: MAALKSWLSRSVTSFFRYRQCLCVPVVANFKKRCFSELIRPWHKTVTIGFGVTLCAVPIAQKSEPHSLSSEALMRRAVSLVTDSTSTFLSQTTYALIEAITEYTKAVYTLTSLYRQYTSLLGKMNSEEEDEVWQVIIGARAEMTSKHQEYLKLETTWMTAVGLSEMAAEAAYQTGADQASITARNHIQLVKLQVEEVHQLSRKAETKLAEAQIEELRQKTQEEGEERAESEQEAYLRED

Tests used:
[1] = target: PARLΔ77 (β-cleavage form of human PARL) (human) (UniProt Q9H300); test: competitive inhibition of FRET peptide cleavage (enzyme kinetics); PARLΔ77 0.8 μM; IQ-PGAM5 20-29 (0.13-19 μM) as main substrate; nonfluorescent PINK1 89-111 at 2.5, 5, 10, 20 μM; Michaelis–Menten plots fitted globally, competitive model; Kd represented by Ki; both purified
[2] = target: PARLΔ77 (β-cleavage form of human PARL) (human) (UniProt Q9H300); test: competitive inhibition of FRET peptide cleavage (enzyme kinetics); PARLΔ77 0.8 μM; IQ-Smac/Diablo 51-60 (0.3–25 μM) as main substrate; nonfluorescent PINK1 89-111 at 2.5, 5, 10, 20 μM; Michaelis–Menten plots fitted globally, competitive model; Kd represented by Ki; both purified

Row | Binder | binding [1] | binding [2]
1 | AVLFSAVAVG (peptide, UniProt Q96HS1 20-29, EDANS/Dabcyl FRET tags (ends not stated)) [IQ-PGAM5^20–29 internally quenched peptide substrate] | binds | 
2 | GVTLCAVPIA (peptide, UniProt Q9NR28 51-60, EDANS/Dabcyl FRET tags (ends not stated)) [IQ-Smac/Diablo^51–60 internally quenched peptide substrate] |  | binds

No constants are given. Whether binding was seen depends on the method and setting. A result given as binding can be weak or reduced; the word gives no strength.
